From patent US20090123565A9, “Copper-dependent non-traditional pro-inflammatory cytokine export and methods, compositions and kits relating thereto” (Maine Medical Center Research Institute, priority 2001, published 2009)
At least one structure is not confirmed: it was looked up by name or label, or the drawing left a doubt.

Test system: balloon-injured rat carotid artery
Assay: Neointima formation after balloon injury of rat carotid artery (histomorphometry, I/M ratio)
Format: in vivo, Sprague-Dawley rats
Conditions: TTM started 2 weeks before injury, stopped 4 days after
Source text: Seventy-nine Sprague-Dawley male rats (Charles River Laboratories) weighing 350 to 450 grams, at 12-16 weeks of age, were included in the study. All rats in this study were handled according to the animal welfare regulation of the Maine Medical Center Research Institute, and the study protocol has been approved by the Animal Care and Use Committee of that institution. The rats received humane care in accordance with the animal use principles of the American Society of Physiology. All rats were maintained under identical conditions of temperature (21±1° C.), humidity (60±5%), and light/dark cycle, and had free access to normal rat chow. […]
Morphometric analysis of the arterial segment was carried out in a blind manner on cross-sections stained with hematoxylin-eosin. For each animal at least 3 sections originating from the proximal, middle and distal segment of the injured vessel were quantitatively measured. Using a computerized digital microscopic planimetry algorithm (Optimas, Version 5.22), the areas within the external elastic lamina (EEL area), the internal elastic lamina (IEL area), and the luminal area were measured. Other areas were calculated as follows: medial area=EEL area−IEL area; neointimal area=IEL area−luminal area; neointima-to-media (I/M ratio=neointimal area/medial area.

Structure (SMILES): [NH4+].[NH4+].[SH-].[SH-].[S]=[Mo]=[S] [TTM, ammonium tetrathiomolybdate]
- intima/media ratio: 0.93±0.0.34
